Measurements taken from publication doi:10.1101/2023.07.19.549485.
No constants are given. Whether binding was seen depends on the method and setting. In cells and extracts the contact can be indirect. A yes stands for co-enrichment or nearness to the bait. Other partners may have been found.

B1: ALBA3 (protein, UniProt Q8IJX8 1-107)
chain: MASTEEVSQERSENSIQVSMTKKPTFYARIGKRMFTGNEEKNPFDEVIITGLGNATKIAIGAASIMEKEDIGQIVKVQTAYFSSDRINRRIPKITIVLKKHPDFVAN

Molecular target: MD3-GFP-BirA fusion protein (P. falciparum) (UniProt O97271)
Assay: proximity labelling

**Q.** “RNF1 (RING-finger domain zinc finger protein) (from UniProt O97260)” was tested. Which binding did it give?
**A.** binds

**Q.** “polyadenylate-binding protein PABP1 (from UniProt Q8I5H4)” was tested. Which binding did it give?
**A.** binds

**Q.** How did the binding turn out when B1 was run?
**A.** binds
